Results from patent US20030059436A1, “Band 3 antigenic peptides, malaria polypeptides and uses thereof” (priority 2001, published 2003).
Results are given in words; binding and its absence hold for the method and conditions named. Binding seen in cells or lysates may run through a third protein. Some results given as binding are weak or reduced against the parent protein; the word gives no strength.

Chains of the proteins cited; added tags and fusions are not shown. Lines headed by an entry give the natural chain unless they say otherwise; changes in a name come on top.
UniProt P02730: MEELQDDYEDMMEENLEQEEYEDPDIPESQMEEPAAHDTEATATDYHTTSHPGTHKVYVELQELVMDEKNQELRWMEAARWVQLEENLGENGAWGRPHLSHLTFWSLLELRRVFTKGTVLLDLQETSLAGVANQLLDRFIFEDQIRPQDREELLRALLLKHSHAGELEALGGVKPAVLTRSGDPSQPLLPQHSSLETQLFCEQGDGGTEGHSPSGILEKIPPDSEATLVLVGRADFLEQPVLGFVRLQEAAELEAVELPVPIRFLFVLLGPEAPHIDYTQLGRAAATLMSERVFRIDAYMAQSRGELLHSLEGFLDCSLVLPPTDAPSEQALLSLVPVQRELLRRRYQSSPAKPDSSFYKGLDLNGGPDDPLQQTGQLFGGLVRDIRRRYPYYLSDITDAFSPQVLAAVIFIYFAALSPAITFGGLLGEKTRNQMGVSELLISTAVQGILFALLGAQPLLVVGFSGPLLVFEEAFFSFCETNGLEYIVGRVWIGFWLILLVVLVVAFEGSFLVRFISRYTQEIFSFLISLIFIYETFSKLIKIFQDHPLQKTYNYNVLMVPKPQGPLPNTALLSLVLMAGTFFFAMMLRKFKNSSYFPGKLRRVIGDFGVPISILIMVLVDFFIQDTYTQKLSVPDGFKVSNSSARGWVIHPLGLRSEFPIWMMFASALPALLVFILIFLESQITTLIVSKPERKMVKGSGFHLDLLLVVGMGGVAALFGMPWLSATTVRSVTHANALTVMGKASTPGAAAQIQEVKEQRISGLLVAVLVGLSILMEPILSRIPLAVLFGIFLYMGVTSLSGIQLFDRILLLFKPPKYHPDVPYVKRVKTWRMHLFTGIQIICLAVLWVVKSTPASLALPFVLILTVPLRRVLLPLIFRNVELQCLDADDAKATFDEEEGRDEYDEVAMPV
UniProt Q8I0U8: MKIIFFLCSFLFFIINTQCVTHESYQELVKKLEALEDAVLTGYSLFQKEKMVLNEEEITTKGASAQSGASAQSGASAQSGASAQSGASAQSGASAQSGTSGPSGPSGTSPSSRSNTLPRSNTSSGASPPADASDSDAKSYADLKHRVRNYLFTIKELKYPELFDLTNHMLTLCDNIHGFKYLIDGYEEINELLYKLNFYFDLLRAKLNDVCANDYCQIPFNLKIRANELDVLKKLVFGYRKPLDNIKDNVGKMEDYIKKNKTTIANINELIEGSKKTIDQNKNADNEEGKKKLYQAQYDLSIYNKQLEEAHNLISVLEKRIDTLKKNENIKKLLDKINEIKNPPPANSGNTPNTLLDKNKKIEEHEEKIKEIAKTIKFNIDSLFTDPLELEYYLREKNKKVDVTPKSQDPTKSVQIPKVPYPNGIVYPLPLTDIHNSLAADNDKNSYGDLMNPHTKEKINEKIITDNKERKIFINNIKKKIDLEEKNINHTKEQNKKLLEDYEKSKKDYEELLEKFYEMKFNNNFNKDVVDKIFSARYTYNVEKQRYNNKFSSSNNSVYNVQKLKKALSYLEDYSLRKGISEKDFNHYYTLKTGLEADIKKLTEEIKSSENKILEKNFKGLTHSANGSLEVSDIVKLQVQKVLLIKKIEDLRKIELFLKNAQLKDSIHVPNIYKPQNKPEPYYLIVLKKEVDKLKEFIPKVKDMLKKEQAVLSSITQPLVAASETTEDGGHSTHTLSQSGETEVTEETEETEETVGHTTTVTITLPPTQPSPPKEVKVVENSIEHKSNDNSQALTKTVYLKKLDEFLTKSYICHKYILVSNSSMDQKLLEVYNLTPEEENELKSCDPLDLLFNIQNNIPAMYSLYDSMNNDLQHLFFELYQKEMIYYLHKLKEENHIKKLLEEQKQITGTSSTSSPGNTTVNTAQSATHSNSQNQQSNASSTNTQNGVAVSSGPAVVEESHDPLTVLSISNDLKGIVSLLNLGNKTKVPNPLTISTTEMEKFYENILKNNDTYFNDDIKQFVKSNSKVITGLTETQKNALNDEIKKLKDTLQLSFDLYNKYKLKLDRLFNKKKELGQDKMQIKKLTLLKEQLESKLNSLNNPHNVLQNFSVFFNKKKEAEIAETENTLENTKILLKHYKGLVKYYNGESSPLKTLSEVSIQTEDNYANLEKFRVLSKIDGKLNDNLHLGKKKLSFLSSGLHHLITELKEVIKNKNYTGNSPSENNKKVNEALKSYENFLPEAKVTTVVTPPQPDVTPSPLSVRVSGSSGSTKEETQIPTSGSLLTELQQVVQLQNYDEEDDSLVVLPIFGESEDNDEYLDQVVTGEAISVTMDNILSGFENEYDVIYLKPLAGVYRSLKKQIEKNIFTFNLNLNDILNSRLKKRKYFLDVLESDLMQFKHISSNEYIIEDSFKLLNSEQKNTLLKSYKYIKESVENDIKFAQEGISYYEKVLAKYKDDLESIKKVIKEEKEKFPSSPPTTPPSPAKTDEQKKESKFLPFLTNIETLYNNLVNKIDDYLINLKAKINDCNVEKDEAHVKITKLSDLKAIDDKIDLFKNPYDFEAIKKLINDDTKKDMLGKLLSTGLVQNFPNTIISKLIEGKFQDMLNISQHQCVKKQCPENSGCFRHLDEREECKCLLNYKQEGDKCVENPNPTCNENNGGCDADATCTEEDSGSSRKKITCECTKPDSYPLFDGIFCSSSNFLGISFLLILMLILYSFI

Experiments:
[1] = target: GST-5ABC (recombinant human Band 3 amino acid 720-761 as GST fusion protein) (human) (UniProt P02730); experiment: pull-down of radiolabeled parasite extract on GST-5ABC beads against GST beads
[2] = target: GST-5ABC (recombinant human Band 3 amino acid 720-761 as GST fusion protein) (human) (UniProt P02730); experiment: pull-down of radiolabeled parasite extract on GST-5ABC beads, autoradiography
[3] = target: GST-5ABC (recombinant human Band 3 amino acid 720-761 as GST fusion protein) (human) (UniProt P02730); experiment: pull-down of radiolabeled parasite extract on GST-5ABC beads

| Substance | binding [1] | binding [2] | binding [3] |
| --- | --- | --- | --- |
| native P. falciparum (3D7) MSP1, full length, metabolically radiolabeled (from UniProt Q8I0U8 20-1699) (ligand) | binds | binds | – |
| native P. falciparum (3D7) MSP142, metabolically radiolabeled (from UniProt Q8I0U8 1327-1699) (ligand) | binds | binds | binds |
